Most values lie at the floor of the assay. Slopes are relative: functional sequences can read slightly below zero. Some results are limits rather than exact numbers.

For the series, the system named is Saccharomyces cerevisiae PS128 hsf1 delta, HSF1(1-493) fusion. The series can be described thus: growth estimate (transactivation domain function in HSF1 fusion, heat-shock survival) (a.u. (slope of normalised read count over time)); higher = stronger growth at 37°C, i.e. more transactivation activity. The settings on record: library: random library. The method, then: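 Random 60-nt DNA library encoding peptides of up to 20 aa, fused to the C-terminus of yeast HSF1 residues 1-493 (C-terminal TAD deleted) and expressed from the native HSF1 promoter on a CEN plasmid in hsf1-deleted S. cerevisiae PS128. Cells were selected at 37°C on -trp 5-FOA plates for 0, 2, 4, 6 and 8 days and amplicons were sequenced. Growth estimate is the slope of a robust linear fit of total-sum-normalised read counts (normalised to the first time point) over time, using at least 2 replicates. Sequences are classed functional (TAD activity) above a threshold of -0.13, set from stop-codon control sequences.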
In the case of PPMTVNKPYARENEIRPCQD, the growth estimate is less than -0.25.

SASYRWSASPQVGSLF: the growth estimate is less than -0.25. In the case of RKPEVLRSIRPPISSRRLDN it was less than -0.25; in that of RHG, less than -0.25.

Turning to SYSAGRH, the growth estimate is -0.245. To CGSGSVLGSDHTQGIQSYDS belongs -0.235. To MWSPTRGQ belongs less than -0.25; to NVSSRGD, less than -0.25. For the substance SMHVCNRLCRYWVILRDNIQ, the growth estimate is less than -0.25.

In the case of QPRV, the growth estimate is less than -0.25. As to STRTGGT, the growth estimate is -0.242. With AVFSLKRQLLGSIPGRDQEV, the growth estimate was -0.246.

Consider VDSHLIILRSRTLEYIHTQV, for which the growth estimate was less than -0.25.

As for SVKLHESFRGQGDMRPPG, the growth estimate is less than -0.25. To GSVAHSGG belongs less than -0.25; to SQNPYGLV, less than -0.25. To SFLSHYTGNFLPFIRKIVKH belongs less than -0.25. In the case of RRIYS it was less than -0.25; in that of LQGLVLQPVRRMVLPQGIRP, less than -0.25; in that of NNYRT, less than -0.25. RDTKKECMAEVTGAAGR: the growth estimate is less than -0.25. In the case of IRV it was less than -0.25; in that of VIVLVEFNDCLRTVAQACLL, less than -0.25; in that of YREIILRNCGIKRLSATSET, less than -0.25.

On to LPLVVCGTARELQ, for which the growth estimate is less than -0.25. In the case of GLQGGSGRISICGGTPCNPK it was less than -0.25; in that of ILSW, less than -0.25. As for ISLGTCSSDLGPWGCKHYR, the growth estimate was less than -0.25. To LQQSSIS belongs less than -0.25; to RSSFHCSTAHRRLIAGCVTR, less than -0.25; to TIRFAPSSGTYYLFNRINGT, less than -0.25. In the case of SQP it was less than -0.25; in that of LQATLY, less than -0.25.

LHGSVATSEARSSLLACVAK: the growth estimate is less than -0.25. As to AREVAEQCGIQECSHSAAVV, the growth estimate is less than -0.25.

As for VFRGRQS, the growth estimate was less than -0.25.

Consider RLVVRKVRFRTRPQVTALVG, for which the growth estimate is less than -0.25.

As for MWVPGTGRAWDTLQPVVNGS, the growth estimate was less than -0.25. In the case of GGVHIFFRSLLATCPR it was -0.245; in that of PSVSCTSCLLRDPKSDD, less than -0.25; in that of YEEDRDCCPGRVSGSCFAAT, less than -0.25. To SQLGRP belongs less than -0.25; to ERHRSASEYRCIIDIYQPAR, less than -0.25; to GQLVSRVCIRRQPKTSQPHC, less than -0.25. In the case of WNPTRLWVPFWATVGTP it was less than -0.25; in that of CTSLGPRLLMQGLRRPVHAV, less than -0.25; in that of ELASLRVQTRCACYSTKTSG, less than -0.25.

For YPYRHCECNPGDTGMICRCV, the growth estimate was -0.156. In the case of ALTSRAHAAPWGERALFVLL it was less than -0.25; in that of GSCEGPSQDLNSPSSYRIVP, less than -0.25; in that of QWLGLYEIGSLTSTRLDPGG, 0.103. In the case of VYYFAACTRGLL it was less than -0.25; in that of NRQHLQTPAI, less than -0.25; in that of YQTFSLRPEIRVRRPEDSIF, less than -0.25. In the case of ARGHIH it was less than -0.25; in that of CISEYDRLRSIPGYPGFPSI, less than -0.25. Regarding PHGDYRAFTFVSRTTPVNPS, the growth estimate is less than -0.25.

In the case of KQEKGVTGCDQQYGISMQTH, the growth estimate is less than -0.25. For the substance GNKRCERLEPGTSGIRDI, the growth estimate was less than -0.25. To EGPSI belongs less than -0.25.

Regarding RELLSRPHLGSNH, the growth estimate is less than -0.25.

On to PETRISILLRGTLARKMPVD, for which the growth estimate is less than -0.25. To RIMYFP belongs less than -0.25; to VTVFLLGDLV, less than -0.25; to HDTNTMRGYLFAGRLARLPC, less than -0.25.

Turning to GRAGSASAIGSPAYAS, the growth estimate is less than -0.25. In the case of VREGRRLRFLASGELTDCRK it was less than -0.25. To NGGIPHERGHPPVVLEGLFL belongs less than -0.25. Regarding SCEICCGEEKYRGLHLW, the growth estimate is less than -0.25. In the case of GQFILKNGM it was less than -0.25. In the case of VTATR it was less than -0.25; in that of QGGNAWLILTATWET, less than -0.25. To RLRDYTIQDG belongs less than -0.25. On to IIKGTTVHVVSQCKAPRRHA, for which the growth estimate is less than -0.25. In the case of KVRQNTHVRAWRVQPAAGGT it was less than -0.25; in that of YFADR, less than -0.25; in that of NSRGGVLVSWVGHKAV, -0.246. To PVIRTWPFGPGVKIELV belongs -0.183; to GGNENVR, less than -0.25. For the substance VLFTTYRP, the growth estimate was less than -0.25. In the case of SAMSYV it was less than -0.25. In the case of PSEVTVPAAGYVARGDLMQH it was less than -0.25; in that of PQN, less than -0.25; in that of LRESRLADLCPYFT, -0.246. To WFVERIPIGPSSVLRRGSAG belongs less than -0.25. As to GPTCVDSSTVDNVLWQSRVV, the growth estimate is less than -0.25. For the substance LWVANQLATKLASTDLRTR, the growth estimate is less than -0.25.

Regarding EREILRMRVGVTPARCVNGR, the growth estimate is less than -0.25. In the case of TALNTAYDCTRLRKVVNVGE it was less than -0.25; in that of LRARVRCGNAVLNFEALRMT, less than -0.25; in that of LPPHPRNLSGS, less than -0.25. To DVIMPVAPMGVVLVQNLRTQ belongs less than -0.25; to VYPGKSWVCKSI, less than -0.25. To SSACRTD belongs less than -0.25; to IKFTQVEL, less than -0.25.

As for LECRVMTRRTRVRHRAFAKE, the growth estimate was less than -0.25.

As to EGNCLIKSVCNNYRKSGLRC, the growth estimate was less than -0.25. In the case of RWR it was -0.243; in that of LEGQYDDVRFPVTPHILENG, less than -0.25; in that of GRSE, less than -0.25.

MPSKLAPIRA: the growth estimate was less than -0.25. To VGFCGRTIFQALAG belongs less than -0.25; to YVTEAVDPRRFPIRRNRTCN, less than -0.25; to GFSRRIDCANRSSTRESRNQ, -0.246.

In the case of MFR, the growth estimate is less than -0.25. To SGTISSLRQLLVGRTTRGIR belongs less than -0.25; to RGFPDKMTAREARHECPRCG, less than -0.25; to KTEACECAGLLPLALLSVLV, less than -0.25. In the case of QCRNASGCR it was less than -0.25. To QDSALAHVAGGLISVVVGYC belongs less than -0.25; to ILRW, less than -0.25; to LKMAGGVGRSDASPGVK, less than -0.25.

On to AGMNNDLESALYATGQV, for which the growth estimate was less than -0.25. To STARTCESHDYSHIQLLKST belongs less than -0.25; to ISMLQLGKIWEDKRVHDPPS, less than -0.25.

Values taken from the supplement of paper PMC5949888.
